Measured values as given in PubChem BioAssay AID2685 (National Center for Advancing Translational Sciences (NCATS), 2010).
The whole screen tested about 320,000 compounds, of which about 2,100 (0.66%) were called active. The inconclusive results got no clear call from the source; some entries with a clear call stand among them for comparison. Calls follow the shape of the dose curve; as a rule, active = well fitted inhibition curve with a large enough effect in the signal ratio, with a control signal flat (not every such curve was filed as active); inconclusive = small, poorly fitted or top-dose-only effect, or effect the other way, or a change in a side signal; inactive = flat fitted curve, though single readings scatter; the % refers to the signal ratio. Where the call is inconclusive, the potency comes from a doubtful curve fit.
% is scaled to controls: 0 for no effect and ±100 for the full control effect; potency is read from the fitted curve at half-maximal effect.

Experiment: qHTS Assay for Lipid Storage Modulators in Drosophila S3 Cells
Settings: BODIPY lipid droplet fluorescence, 18-24 h, cells fed with added oleic acid; lipid storage change, negative = inhibition: at 46.1 µM (top of the series) unless noted
Method in brief: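 Drosophila S3 cells loaded with oleic acid (400 uM, as added) and compounds at several concentrations; lipid droplets imaged by 488-nm laser-scanning cytometry, 500–530 nm intensity and object ratio to cell channel. Percent activity normalized to 20 uM Triacsin C.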
In the case of `O=C(Nc1ccc(OC(F)(F)F)cc1)c1ccc(S(=O)(=O)N2CCOCC2)o1`, the lipid storage change, negative = inhibition is reported as inconclusive: 0.204%. With `O=c1[nH]c(C2CCN(S(=O)(=O)c3ccc4c(c3)OCCO4)CC2)nc2c1nnn2Cc1c(F)cccc1Cl` the lipid storage change, negative = inhibition was inconclusive: -32.8%. In the case of `Cc1ccc(OCC(=O)NCc2ccccn2)c(Br)c1`, the lipid storage change, negative = inhibition is reported as inconclusive: 27.1%. For `Cc1c(CCO)c(=O)n(C)n1C(=O)c1ccc(F)cc1`, the lipid storage change, negative = inhibition was inconclusive: -18.9%. For `O=C(NNS(=O)(=O)c1ccc(F)cc1)C1CC(c2cccnc2)=NO1` (centres undefined), the lipid storage change, negative = inhibition was inconclusive: 10.2%. With `Cc1cc(C)c(C)c(S(=O)(=O)Nc2ccc3cn[nH]c3c2)c1C` the lipid storage change, negative = inhibition was inconclusive: -3.05%. In the case of `Cc1cccc(C(=O)OCC(=O)N(C)C(c2ccccc2)c2ccccc2)c1[N+](=O)[O-]`, the Potency is reported as inconclusive: 6.51 µM [falling, single point]. In the case of `CN(Cc1ccc(Cl)cc1Cl)C(=O)c1cc(=O)c2ccccc2o1`, the Potency is reported as inconclusive: 5.8 µM [falling, partial curve, poor fit]. For `O=C(N/N=C/c1ccc([N+](=O)[O-])cc1)c1cccc2cc[nH]c12`, the lipid storage change, negative = inhibition was inconclusive: 19%. For `c1ccc(Cn2nnc3c(N4CCCCCC4)ncnc32)cc1`, the lipid storage change, negative = inhibition was inconclusive: 21.7%. With `Oc1ccccc1/C=N/Nc1ccnc(SCc2ccccc2)n1` the lipid storage change, negative = inhibition was inconclusive: -0.773%. In the case of `Cc1cccc(-c2nc3cc(NC(=O)C4CCCO4)ccc3o2)c1` (centres undefined), the Potency is reported as inconclusive: 2.31 µM [activator, full curve]. In the case of `CCN1CCN(C(=S)NC(=O)/C=C/c2cccs2)CC1`, the lipid storage change, negative = inhibition is reported as inconclusive: 43.1%. For `O=C(N/N=C/c1ccoc1)c1ccc(Br)cc1`, the Potency was inconclusive: 0.891 µM [falling, partial curve, poor fit]. With `CCCN(C(=O)c1c(CC)noc1C)c1c(N)n(Cc2ccccc2)c(=O)[nH]c1=O` the lipid storage change, negative = inhibition was inconclusive: 0.234%. In the case of `O=C(Nc1cccc(Cl)c1)C1CCN(C(=O)c2cccs2)CC1`, the Potency is reported as inconclusive: 29.1 µM [activator, single point]. In the case of `O=C(COC(=O)c1cccc(S(=O)(=O)N2CCCC2)c1)Nc1ccccc1`, the lipid storage change, negative = inhibition is reported as “inactive”. In the case of `Cc1ccc(OCCOCCn2cnc3ccccc3c2=O)cc1C`, the lipid storage change, negative = inhibition is reported as inconclusive: 11%. With `CCOc1ccc(C(=S)NC2CCCCC2)cc1OCC` the lipid storage change, negative = inhibition was inconclusive: -100%. In the case of `Cc1cc(C(F)(F)F)nc2c(Cl)c(C(C)(C)C)nn12`, the lipid storage change, negative = inhibition is reported as inconclusive: -15.3%. With `COC(=O)c1c(NC(NC(C)=O)C(Cl)(Cl)Cl)sc2c1CCCC2` (centres undefined) the lipid storage change, negative = inhibition was inconclusive: -24.1%. With `COc1ccc(OC)c(S(=O)(=O)N2CCCC(C(=O)N3CCOCC3)C2)c1` (centres undefined) the lipid storage change, negative = inhibition was inconclusive: -100%. For `CN(CC(=O)Nc1cccc(S(=O)(=O)N2CCOCC2)c1)CC(=O)Nc1ccc(Cl)c(C(F)(F)F)c1`, the lipid storage change, negative = inhibition was inconclusive: 32.7%. In the case of `CCCn1c(Sc2nnnn2-c2ccccc2)n[nH]c1=O`, the lipid storage change, negative = inhibition is reported as inconclusive: -9.52%. For `CCc1cccc2c(C(=O)CSc3nnc(C4CC4)o3)c[nH]c12`, the Potency was inconclusive: 3.66 µM [falling, full curve]. For `O=C(Cn1[nH]c(=O)c2ccccc2c1=O)OCC(=O)c1ccccc1`, the lipid storage change, negative = inhibition was inconclusive: -15.1%. With `CNC(=O)CN(c1cc(OCCOC)c(Cl)cc1Cl)S(=O)(=O)c1ccc(OC)cc1` the lipid storage change, negative = inhibition was inconclusive: -21.4%. With `Cc1c(NC(=S)N2CCN(c3ccc(F)cc3)CC2)c(=O)n(-c2ccccc2)n1C` the lipid storage change, negative = inhibition was inconclusive: -14.3%. With `O=C(OCc1cc(Cl)ccc1OC(F)F)c1cc(S(=O)(=O)O)ccc1O` the Potency was active: 1.64 µM. For `O=C(c1cc(-c2ccccc2)nn1-c1ccccc1)N1CCN(S(=O)(=O)c2ccc(F)cc2)CC1`, the lipid storage change, negative = inhibition was inconclusive: 43.8%. For `O=[N+]([O-])c1cccc(C(O)C23CN4CN(CN(C4)C2)C3)c1` (centres undefined), the lipid storage change, negative = inhibition was inconclusive: -0.706%. In the case of `CCS(=O)(=O)c1ccc2c(c1)N(S(=O)(=O)c1ccc(C)cc1)CC(C(=O)O)O2` (centres undefined), the lipid storage change, negative = inhibition is reported as inconclusive: -47% [at 9.22 µM]. For `COc1ccc(/C=C/c2ccc3cccc(O)c3n2)cc1Br`, the lipid storage change, negative = inhibition was inconclusive: -91.5%. With `Cc1cc(C)c2cc(CN(Cc3cccs3)Cc3nnnn3CC3CCCO3)c(=O)[nH]c2c1` (centres undefined) the lipid storage change, negative = inhibition was inconclusive: 62.4%. With `Cc1nnc(SCc2cc(=O)[nH]c(N3CCN(Cc4ccccc4)CC3)n2)s1` the Potency was inconclusive: 11.6 µM [falling, partial curve]. For `Cn1c(=O)c2c(nc(N3CCCCC3)n2CC(O)COc2ccccc2)n(C)c1=O` (centres undefined), the Potency was inconclusive: 0.291 µM [activator, partial curve, poor fit]. For `O=C(CSc1ccc(-c2cccc([N+](=O)[O-])c2)nn1)NCc1ccccc1`, the lipid storage change, negative = inhibition was inconclusive: 2.73%. For `Cc1ccc(S(=O)(=O)c2ccc(Oc3cccc(C)c3)cc2)cc1`, the lipid storage change, negative = inhibition was inconclusive: -8.8%. With `Cn1cccc1Cc1nnc(SCC(=O)N2CCCCCC2)n1-c1ccc(F)cc1` the lipid storage change, negative = inhibition was inconclusive: 32.2%. In the case of `Cc1ccc(S(=O)(=O)NNC(=O)CCCCC(=O)NNS(=O)(=O)c2ccc(C)cc2)cc1`, the Potency is reported as inconclusive: 29.1 µM [falling, single point]. In the case of `CC(=O)c1cccc(OCC(=O)N2CCCc3ccccc32)c1`, the lipid storage change, negative = inhibition is reported as inconclusive: 67.8%. For `CN1C(CC(=O)c2ccccc2)CCCC1CC(O)c1ccccc1` (centres undefined), the Potency was active: 18.4 µM. With `N#Cc1ccc(-c2ccc(OCC(=O)NCC(=O)Nc3ccc(F)c(F)c3F)cc2)cc1` the Potency was inconclusive: 20.6 µM [activator, partial curve]. With `CC(C)(C)C(=O)Nc1cccc(C(=O)c2cccc(NC(=O)C(C)(C)C)c2)c1` the Potency was inconclusive: 23.1 µM [activator, single point]. With `S=C(NCc1ccccc1)Nc1cccc2ccccc12` the lipid storage change, negative = inhibition was inconclusive: 16.2%. In the case of `Cc1ccc2oc(C(=O)NCc3ccc(S(N)(=O)=O)cc3)cc(=O)c2c1`, the Potency is reported as inconclusive: 29.1 µM [falling, partial curve, poor fit]. In the case of `CCOC(=O)N1CCN(c2c(NCCCN(CC)Cc3ccccc3)c(=O)c2=O)CC1`, the lipid storage change, negative = inhibition is reported as inconclusive: 15.8%. For `Cc1nnsc1C(=O)NC1CCCc2c1cnn2-c1ccccc1F` (centres undefined), the Potency was active: 4.11 µM. For `N#CCC(=O)Nc1ccc(C(=O)OCC(=O)c2ccc3c(c2)OCCO3)cc1`, the lipid storage change, negative = inhibition was inconclusive: 14.1%.
